Test [1] concerns the target T1, recombinant human TIGIT extracellular domain (ECD) (human) (UniProt Q495A1).
T1 sequence: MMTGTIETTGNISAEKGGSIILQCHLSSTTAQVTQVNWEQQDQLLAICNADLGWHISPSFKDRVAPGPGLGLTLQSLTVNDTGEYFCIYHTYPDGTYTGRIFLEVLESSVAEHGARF
The test can be described thus: ELISA of VHH supernatants after affinity maturation of 1G1-F-A-ERES.

Amino acid sequences for entries named in this document (tags omitted). Residues count along the entry.
UniProt P08637, residues 17-208: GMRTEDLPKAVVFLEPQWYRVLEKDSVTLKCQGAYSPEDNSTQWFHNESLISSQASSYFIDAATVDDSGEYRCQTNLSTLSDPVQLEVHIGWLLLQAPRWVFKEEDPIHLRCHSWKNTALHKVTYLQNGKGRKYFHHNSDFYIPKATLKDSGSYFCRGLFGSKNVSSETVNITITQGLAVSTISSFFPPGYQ

The target in test [2] is T2, human TIGIT (T cell immunoreceptor with Ig and ITIM domains), expressed on cells (human) (UniProt Q495A1).
T2 sequence: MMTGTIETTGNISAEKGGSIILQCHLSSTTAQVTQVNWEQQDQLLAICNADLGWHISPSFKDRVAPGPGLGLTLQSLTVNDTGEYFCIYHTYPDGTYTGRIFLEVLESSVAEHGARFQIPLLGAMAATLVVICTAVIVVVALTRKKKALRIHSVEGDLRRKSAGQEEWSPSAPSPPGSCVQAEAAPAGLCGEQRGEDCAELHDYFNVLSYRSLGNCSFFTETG
As to the kind of experiment: whole cell binding to cells stably expressing human TIGIT; EC50 plotted against the IC50 of the blocking ELISA.

Test [3] has as its target T1, recombinant human TIGIT extracellular domain (ECD) (human). The test can be described thus: PVR blocking ELISA: inhibition of PVR (CD155) binding to human TIGIT; IC50 plotted against the EC50 of whole cell binding.
The target in test [4] is human FcγRIIIA ECD, recombinant (human) (UniProt P08637). The test can be described thus: Octet (ForteBio) biolayer interferometry; recombinant human FcγRIIIA ECD loaded on the sensor; antibody at 5 concentrations (not printed on the sheet).
Test [5] shares this target. As to the kind of experiment: Octet (ForteBio), receptor ECD loaded on sensor, 5 concentrations.
The target is the same in test [6]. As to the kind of experiment: Octet, recombinant ECD of the receptor.
Test [7] deals with T1, recombinant human TIGIT extracellular domain (ECD) (human). The test can be described thus: ELISA, VHH supernatants on h-TIGIT ECD coated plates.

Consider four molecules from patent publication US20230134580A1.

No constants are given. Whether binding was seen depends on the method and setting. Some results given as binding are weak or reduced against the parent protein; the word gives no strength. For some assays here: Tags and fused reporters may be left off the sequences shown.

B1: 1G1-1C12 VHH (SEQ ID NO 125) (VHH)
VHH: QVQLVESGGGVVQPGRSLRLSCAASGPSFSSYPMGWFRQAPGKERESVAAISSDLRFTYYADSVKGRFTISRDNSKNTLYLQMNSLRAEDTAVYYCAARDSGSGYYSRKQWYDYWGQGTLVTVSS
Consider B1, for which the binding entry in test [1], in test [2] and in test [3] was “binds” throughout.

B2: 2A3-LT-Fc VPVLL mutant (Fc mutations L235V, F243L, R292P, Y300L and P396L) (Fc fusion)
chain: QVQLVESGGGVVQPGRSLRLSCAASGGSFSSYPMGWFRQAPGKERESVAAISSDLRFTYYADSVKGRFTISRDNSKNTLYLQMNSLRAEDTAVYYCAARTSGVGYYSRAQWYDYWGQGTLVTVSSEPKSCDKTHTCPPCPAPELVGGPSVFLLPPKPKDTLMISRTPEVTCVVVDVSHEDPEVKFNWYVDGVEVHNAKTKPPEEQYNSTLRVVSVLTVLHQDWLNGKEYKCKVSNKALPAPIEKTISKAKGQPREPQVYTLPPSREEMTKNQVSLTCLVKGFYPSDIAVEWESNGQPENNYKTTPLVLDSDGSFFLYSKLTVDKSRWQQGNVFSCSVMHEALHNHYTQKSLSLSPGK
On to B2, for which the binding result in test [4], in test [5] and in test [6] was “binds” each time.

B3: 10H5 VHH (VHH)
VHH: GGGLVQAGGSLRLACTASDPPFANYETTFKSMAMGWVRHIPGKERELVAATNYNGGRTWYSNSAKARSTISRDNAKNTVYLQMSSLKPEDTAVYYCAAKATEGTTFPSRTYEFWGQGIQVTVSS
For the molecule B3, the binding entry in test [7] is “binds”.

B4: 4D5 VHH (VHH)
VHH: VDSGGGAVKAGDSLRLVCSAPGRTHGRAFNEYAMAWFRQGPGKERESVAAISSDGRFTYYAASVKGRFTISKDNAKSAAFLQMNSLKPEDTAVYYCAARDSGSGYYSRAQWYDYWGQGTQVTVSS
Consider B4, for which the binding entry in test [7] was “binds”.
